These are yes or no findings as the source states them, for the method shown.

This assay deals with T1, HAMLET (Human Alpha-lactalbumin Made LEthal to Tumor cells) (human), P00709.
T1 chain: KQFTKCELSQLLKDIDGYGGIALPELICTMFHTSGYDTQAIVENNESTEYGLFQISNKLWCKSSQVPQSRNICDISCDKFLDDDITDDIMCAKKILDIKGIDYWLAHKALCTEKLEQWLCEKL
Kind of assay: SAXS; HAMLET at 2.5 and 6.5 mg/ml in phosphate-buffered saline, 15 °C; molecular mass from forward scattering compared with a BSA reference solution; both purified. The following applies: remark: other sources report otherwise.

B1: HAMLET (Human Alpha-lactalbumin Made LEthal to Tumor cells), P00709 20-142 (protein)
chain: KQFTKCELSQLLKDIDGYGGIALPELICTMFHTSGYDTQAIVENNESTEYGLFQISNKLWCKSSQVPQSRNICDISCDKFLDDDITDDIMCAKKILDIKGIDYWLAHKALCTEKLEQWLCEKL
For the molecule B1, the binding result is “no binding (tested: 2.5 and 6.5 mg/ml)”.

The record behind these values is PMC3531425, “Low Resolution Solution Structure of HAMLET and the Importance of Its Alpha-Domains in Tumoricidal Activity” (PLoS ONE, 2012).
